Some entries share one result that the patent states for a list of compounds.
test system: E. coli cell-free transcription-translation system; type: biochemical; conditions: 100 µM

Substance | percent inhibition of protein synthesis (luciferase)
AGAAMSH [BLS15] | 70-80%
AMSAPIP [BLS18] | 70-80%
GTMLAAV [BLS17] | 70-80%
LTHPRWP [BLS6] | 30-40%
TMTPPTR [BLS20] | 30-40%
TPTTDGP [BLS14] | 30-40%
